Experimental data taken from the supplement of paper PMC6411743.
± gives the standard deviation of the averaged measurements. The list shows a part of the results.

Sequences of proteins named here, by UniProt entry; tags and fusion partners are left off. A change or cut given only in a name is not applied to a line headed by its entry.
UniProt O14925: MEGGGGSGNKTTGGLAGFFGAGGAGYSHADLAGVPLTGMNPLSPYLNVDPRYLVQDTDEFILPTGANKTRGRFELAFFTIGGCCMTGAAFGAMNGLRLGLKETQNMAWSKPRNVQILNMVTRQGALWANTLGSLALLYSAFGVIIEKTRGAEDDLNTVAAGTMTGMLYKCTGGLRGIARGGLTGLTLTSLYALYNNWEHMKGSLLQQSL
UniProt O60216: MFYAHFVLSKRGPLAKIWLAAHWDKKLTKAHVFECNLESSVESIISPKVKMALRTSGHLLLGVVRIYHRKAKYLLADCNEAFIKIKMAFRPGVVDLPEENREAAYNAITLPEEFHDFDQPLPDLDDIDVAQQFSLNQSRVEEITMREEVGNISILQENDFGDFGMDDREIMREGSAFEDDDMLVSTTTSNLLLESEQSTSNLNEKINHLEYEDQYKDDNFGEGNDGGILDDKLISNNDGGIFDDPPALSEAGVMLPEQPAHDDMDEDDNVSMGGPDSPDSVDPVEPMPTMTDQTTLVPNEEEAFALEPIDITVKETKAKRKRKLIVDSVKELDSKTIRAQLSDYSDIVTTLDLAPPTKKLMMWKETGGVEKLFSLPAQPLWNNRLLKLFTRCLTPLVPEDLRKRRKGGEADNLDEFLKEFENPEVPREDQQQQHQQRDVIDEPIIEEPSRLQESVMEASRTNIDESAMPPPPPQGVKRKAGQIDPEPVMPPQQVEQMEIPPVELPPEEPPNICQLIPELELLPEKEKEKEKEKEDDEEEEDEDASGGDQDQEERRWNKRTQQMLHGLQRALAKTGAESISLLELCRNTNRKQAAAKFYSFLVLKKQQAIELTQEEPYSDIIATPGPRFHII
UniProt O00487, whole entry: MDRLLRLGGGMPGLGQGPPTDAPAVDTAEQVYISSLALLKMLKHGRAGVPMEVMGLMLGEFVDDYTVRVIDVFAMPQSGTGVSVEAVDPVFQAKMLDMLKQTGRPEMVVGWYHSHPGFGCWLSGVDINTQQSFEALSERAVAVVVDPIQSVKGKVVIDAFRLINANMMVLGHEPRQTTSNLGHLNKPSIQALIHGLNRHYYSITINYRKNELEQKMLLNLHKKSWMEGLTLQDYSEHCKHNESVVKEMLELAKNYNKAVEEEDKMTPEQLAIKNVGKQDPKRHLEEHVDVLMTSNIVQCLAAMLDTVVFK
UniProt O60508: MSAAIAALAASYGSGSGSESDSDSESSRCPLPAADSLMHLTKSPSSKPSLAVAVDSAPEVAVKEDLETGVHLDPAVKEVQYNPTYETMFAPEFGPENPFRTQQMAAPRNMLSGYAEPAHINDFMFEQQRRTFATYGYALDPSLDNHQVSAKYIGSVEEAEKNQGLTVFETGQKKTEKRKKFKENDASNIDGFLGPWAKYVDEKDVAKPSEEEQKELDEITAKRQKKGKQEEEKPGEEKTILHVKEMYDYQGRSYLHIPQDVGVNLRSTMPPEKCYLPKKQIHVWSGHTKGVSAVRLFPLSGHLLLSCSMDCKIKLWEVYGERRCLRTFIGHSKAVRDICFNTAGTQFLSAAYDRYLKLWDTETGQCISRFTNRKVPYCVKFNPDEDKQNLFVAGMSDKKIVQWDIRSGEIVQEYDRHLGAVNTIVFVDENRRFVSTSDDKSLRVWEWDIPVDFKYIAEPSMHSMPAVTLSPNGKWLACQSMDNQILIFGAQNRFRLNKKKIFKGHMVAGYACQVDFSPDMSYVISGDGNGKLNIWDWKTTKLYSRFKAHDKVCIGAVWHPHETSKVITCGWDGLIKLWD
UniProt O00203: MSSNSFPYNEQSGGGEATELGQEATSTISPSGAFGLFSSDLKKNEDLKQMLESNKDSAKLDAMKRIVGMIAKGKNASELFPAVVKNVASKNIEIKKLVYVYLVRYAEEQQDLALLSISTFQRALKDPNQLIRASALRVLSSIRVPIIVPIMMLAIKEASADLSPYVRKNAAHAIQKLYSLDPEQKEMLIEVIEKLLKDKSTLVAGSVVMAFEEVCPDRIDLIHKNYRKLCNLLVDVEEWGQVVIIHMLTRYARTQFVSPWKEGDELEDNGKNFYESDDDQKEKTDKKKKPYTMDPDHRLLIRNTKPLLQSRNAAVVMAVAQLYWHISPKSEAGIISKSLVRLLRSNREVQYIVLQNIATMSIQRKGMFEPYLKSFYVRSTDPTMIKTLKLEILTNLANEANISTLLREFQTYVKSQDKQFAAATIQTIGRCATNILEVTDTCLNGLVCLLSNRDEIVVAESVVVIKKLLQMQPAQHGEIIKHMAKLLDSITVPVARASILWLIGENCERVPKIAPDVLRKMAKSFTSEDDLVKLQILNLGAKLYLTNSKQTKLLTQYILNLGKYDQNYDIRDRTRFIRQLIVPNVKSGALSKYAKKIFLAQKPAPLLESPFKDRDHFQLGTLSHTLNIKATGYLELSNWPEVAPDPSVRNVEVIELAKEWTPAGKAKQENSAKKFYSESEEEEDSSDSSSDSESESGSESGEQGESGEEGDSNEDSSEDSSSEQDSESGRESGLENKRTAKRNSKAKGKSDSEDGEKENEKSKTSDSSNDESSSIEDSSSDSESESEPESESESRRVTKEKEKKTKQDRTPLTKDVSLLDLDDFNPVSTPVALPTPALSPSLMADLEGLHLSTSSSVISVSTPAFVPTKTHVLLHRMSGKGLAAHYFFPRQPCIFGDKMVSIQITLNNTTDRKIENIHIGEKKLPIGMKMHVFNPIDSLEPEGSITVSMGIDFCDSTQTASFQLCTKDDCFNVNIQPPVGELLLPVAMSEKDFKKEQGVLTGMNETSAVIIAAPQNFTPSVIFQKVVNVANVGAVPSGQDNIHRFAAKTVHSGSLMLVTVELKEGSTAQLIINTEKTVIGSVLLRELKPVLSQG
UniProt O60749: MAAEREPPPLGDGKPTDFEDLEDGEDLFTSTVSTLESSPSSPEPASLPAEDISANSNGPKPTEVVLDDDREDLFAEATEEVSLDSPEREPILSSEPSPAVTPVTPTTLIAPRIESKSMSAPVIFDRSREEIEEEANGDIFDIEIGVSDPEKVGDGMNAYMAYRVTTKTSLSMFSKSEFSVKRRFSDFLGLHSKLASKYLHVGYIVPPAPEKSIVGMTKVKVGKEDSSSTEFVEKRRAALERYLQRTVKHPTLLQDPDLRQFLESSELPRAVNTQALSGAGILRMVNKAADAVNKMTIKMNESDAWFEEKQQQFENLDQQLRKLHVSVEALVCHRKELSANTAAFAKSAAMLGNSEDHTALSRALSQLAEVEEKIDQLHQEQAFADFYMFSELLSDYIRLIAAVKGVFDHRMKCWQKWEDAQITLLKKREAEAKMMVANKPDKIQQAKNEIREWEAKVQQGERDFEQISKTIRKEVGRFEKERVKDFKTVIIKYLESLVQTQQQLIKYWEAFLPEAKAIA
UniProt O43505: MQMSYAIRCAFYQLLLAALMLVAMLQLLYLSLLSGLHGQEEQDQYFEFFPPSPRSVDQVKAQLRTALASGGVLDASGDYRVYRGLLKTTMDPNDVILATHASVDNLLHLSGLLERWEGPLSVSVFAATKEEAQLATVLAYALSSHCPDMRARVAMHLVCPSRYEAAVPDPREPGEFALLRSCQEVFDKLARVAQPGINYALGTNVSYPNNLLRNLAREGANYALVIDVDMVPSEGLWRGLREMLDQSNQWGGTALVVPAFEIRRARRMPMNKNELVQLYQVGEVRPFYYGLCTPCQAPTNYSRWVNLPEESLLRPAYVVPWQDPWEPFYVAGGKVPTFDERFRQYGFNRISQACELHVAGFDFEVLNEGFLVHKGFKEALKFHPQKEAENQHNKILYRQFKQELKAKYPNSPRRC
UniProt O14908: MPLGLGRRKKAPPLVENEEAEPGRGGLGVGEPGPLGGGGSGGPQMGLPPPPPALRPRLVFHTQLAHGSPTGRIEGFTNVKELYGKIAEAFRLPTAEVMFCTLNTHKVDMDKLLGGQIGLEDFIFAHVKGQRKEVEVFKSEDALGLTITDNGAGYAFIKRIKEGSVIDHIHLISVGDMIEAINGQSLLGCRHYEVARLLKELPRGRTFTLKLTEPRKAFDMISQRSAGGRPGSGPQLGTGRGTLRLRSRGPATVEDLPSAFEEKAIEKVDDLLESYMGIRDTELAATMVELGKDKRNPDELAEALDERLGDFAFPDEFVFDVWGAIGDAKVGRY
UniProt O43813, whole entry: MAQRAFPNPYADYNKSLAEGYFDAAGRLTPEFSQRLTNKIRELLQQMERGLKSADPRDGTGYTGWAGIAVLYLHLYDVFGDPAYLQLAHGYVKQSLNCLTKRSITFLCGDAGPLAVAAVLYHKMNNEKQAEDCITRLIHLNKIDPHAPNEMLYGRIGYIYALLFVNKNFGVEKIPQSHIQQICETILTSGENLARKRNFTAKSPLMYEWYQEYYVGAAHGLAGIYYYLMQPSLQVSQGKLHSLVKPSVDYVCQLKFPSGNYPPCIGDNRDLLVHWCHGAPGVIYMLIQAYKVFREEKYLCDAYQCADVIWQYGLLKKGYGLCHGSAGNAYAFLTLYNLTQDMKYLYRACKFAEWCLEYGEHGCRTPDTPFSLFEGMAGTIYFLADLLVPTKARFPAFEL
UniProt O14523: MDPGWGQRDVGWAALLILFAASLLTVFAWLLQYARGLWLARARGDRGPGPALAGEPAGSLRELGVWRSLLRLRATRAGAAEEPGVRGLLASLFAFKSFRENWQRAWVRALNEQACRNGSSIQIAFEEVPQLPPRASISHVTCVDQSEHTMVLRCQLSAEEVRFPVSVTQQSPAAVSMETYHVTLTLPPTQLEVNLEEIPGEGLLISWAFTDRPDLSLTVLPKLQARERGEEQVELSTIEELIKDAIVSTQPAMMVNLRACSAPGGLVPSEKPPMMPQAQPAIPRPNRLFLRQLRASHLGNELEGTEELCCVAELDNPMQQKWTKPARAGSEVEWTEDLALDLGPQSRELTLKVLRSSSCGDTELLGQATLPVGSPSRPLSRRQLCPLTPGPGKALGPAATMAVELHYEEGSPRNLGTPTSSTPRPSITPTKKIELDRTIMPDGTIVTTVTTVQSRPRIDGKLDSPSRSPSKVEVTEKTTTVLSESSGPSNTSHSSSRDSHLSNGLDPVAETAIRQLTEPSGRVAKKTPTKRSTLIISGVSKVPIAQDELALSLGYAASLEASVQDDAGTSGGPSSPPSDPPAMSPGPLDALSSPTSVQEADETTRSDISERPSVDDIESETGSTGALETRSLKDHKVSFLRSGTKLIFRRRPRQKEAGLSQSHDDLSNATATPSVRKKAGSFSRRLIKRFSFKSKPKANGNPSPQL
UniProt O60518: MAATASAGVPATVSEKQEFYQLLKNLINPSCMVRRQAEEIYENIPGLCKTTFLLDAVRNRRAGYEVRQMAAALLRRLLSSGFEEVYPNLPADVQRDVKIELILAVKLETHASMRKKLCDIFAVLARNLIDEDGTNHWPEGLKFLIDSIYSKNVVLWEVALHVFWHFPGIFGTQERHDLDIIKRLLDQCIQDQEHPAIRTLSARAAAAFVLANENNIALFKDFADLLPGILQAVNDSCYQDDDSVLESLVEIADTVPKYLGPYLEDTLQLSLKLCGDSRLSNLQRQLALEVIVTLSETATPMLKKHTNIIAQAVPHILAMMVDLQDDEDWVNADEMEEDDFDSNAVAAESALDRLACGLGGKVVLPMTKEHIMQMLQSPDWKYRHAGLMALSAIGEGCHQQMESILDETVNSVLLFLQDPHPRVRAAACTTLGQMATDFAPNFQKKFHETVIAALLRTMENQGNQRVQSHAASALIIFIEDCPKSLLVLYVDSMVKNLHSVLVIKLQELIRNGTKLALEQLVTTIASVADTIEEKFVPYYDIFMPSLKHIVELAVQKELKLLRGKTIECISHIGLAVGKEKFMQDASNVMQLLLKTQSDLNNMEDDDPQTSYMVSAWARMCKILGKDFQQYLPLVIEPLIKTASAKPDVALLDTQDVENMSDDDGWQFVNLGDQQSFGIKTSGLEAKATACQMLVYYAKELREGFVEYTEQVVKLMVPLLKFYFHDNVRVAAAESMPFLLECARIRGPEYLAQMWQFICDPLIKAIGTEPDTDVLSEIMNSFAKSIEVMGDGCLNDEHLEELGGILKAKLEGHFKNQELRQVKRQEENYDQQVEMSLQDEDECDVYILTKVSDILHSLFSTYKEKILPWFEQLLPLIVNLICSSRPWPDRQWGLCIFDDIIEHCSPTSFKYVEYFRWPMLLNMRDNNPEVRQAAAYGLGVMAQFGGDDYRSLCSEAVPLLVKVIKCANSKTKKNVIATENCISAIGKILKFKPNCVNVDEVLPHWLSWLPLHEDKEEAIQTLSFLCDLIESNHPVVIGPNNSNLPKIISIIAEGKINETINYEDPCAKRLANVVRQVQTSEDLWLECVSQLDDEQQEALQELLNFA
UniProt O60888: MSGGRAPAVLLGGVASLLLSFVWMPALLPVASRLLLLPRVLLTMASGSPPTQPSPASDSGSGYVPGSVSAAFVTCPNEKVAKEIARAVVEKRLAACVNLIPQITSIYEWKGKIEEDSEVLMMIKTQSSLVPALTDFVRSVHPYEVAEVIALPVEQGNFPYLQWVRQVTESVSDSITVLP

Compound: Nc1nc2c(ncn2[C@@H]2O[C@H](COP(=O)(O)OP(=O)(O)OP(=O)(O)O)[C@@H](O)[C@H]2O)c(=O)[nH]1 [guanosine triphosphate]
Test: NP40-soluble protein abundance relative to vehicle (solubility fold change) (ratio); higher = more soluble protein in presence of GTP
Outline: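 Jurkat crude lysate prepared with a Dounce homogeniser was treated at eight concentrations spanning 0.1 to 10 mM, 10 min at room temperature then 3 min at 37 °C. Solubilisation with 0.8% NP40 and benzonase and ultracentrifugation preceded TMT labelling of the supernatant for LC-MS/MS. Fold change against the detergent-processed vehicle was determined per replicate from vsn-normalised intensities, across three independent experiments.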

Target	NP40-soluble protein abundance (concentration: 0.1mM)	NP40-soluble protein abundance (concentration: 0.5mM)	NP40-soluble protein abundance (concentration: 1mM)	NP40-soluble protein abundance (concentration: 2mM)	NP40-soluble protein abundance (concentration: 4mM)	NP40-soluble protein abundance (concentration: 6mM)	NP40-soluble protein abundance (concentration: 8mM)	NP40-soluble protein abundance (concentration: 10mM)
TIMM23 (UniProt O14925)	0.979 ± 0.016	0.902 ± 0.037	0.856 ± 0.016	0.892 ± 0.02	0.904 ± 0.043	0.877 ± 0.026	0.838 ± 0.046	0.898 ± 0.042
RAD21 (UniProt O60216)	0.975 ± 0.037	0.991 ± 0.03	1.06 ± 0.023	1.07 ± 0.044	1.09 ± 0.028	1.07 ± 0.038	1.11 ± 0.062	1.12 ± 0.092
UniProt O00487	0.992 ± 0.049	1.03 ± 0.098	0.974 ± 0.12	1.01 ± 0.15	1.01 ± 0.12	1.04 ± 0.16	1 ± 0.13	0.955 ± 0.14
UniProt O60508 and related entries	1.07 ± 0.031	1.1 ± 0.017	1.09 ± 0.022	1.072 ± 0.0076	1.05 ± 0.034	1.07 ± 0.053	1.11 ± 0.013	1.08 ± 0.042
AP3B1 (UniProt O00203)	1.004 ± 0.0019	1.05 ± 0.028	0.98 ± 0.033	1.02 ± 0.044	0.991 ± 0.043	0.998 ± 0.056	0.994 ± 0.044	0.991 ± 0.015
UniProt O43760 and related entries	0.957 ± 0.086	0.909 ± 0.12	0.911 ± 0.076	0.915 ± 0.083	0.908 ± 0.088	0.852 ± 0.11	0.843 ± 0.15	0.884 ± 0.091
URB1 (UniProt O60287)	1.07 ± 0.019	1.16 ± 0.061	1.21 ± 0.076	1.41 ± 0.097	1.79 ± 0.072	1.95 ± 0.13	2.18 ± 0.082	2.34 ± 0.033
UniProt O60343 and related entries	1.02 ± 0.036	1.03 ± 0.03	0.979 ± 0.014	0.967 ± 0.047	0.953 ± 0.044	0.944 ± 0.052	0.965 ± 0.054	0.938 ± 0.066
M0QXA7 and related entries (UniProt O95785)	1.08 ± 0.031	1.06 ± 0.039	1.07 ± 0.033	1.06 ± 0.077	1.11 ± 0.043	1.11 ± 0.024	1.21 ± 0.057	1.18 ± 0.036
UniProt O60749 and related entries	0.982 ± 0.021	0.964 ± 0.029	0.956 ± 0.035	0.904 ± 0.034	0.921 ± 0.05	0.912 ± 0.048	0.916 ± 0.055	0.89 ± 0.03
UniProt O60880 and related entries	0.979 ± 0.065	0.949 ± 0.076	1.01 ± 0.1	0.939 ± 0.11	0.955 ± 0.14	0.945 ± 0.14	0.976 ± 0.1	0.927 ± 0.12
ZZEF1 (UniProt O43149)	1.07 ± 0.088	1.09 ± 0.13	1.12 ± 0.13	1.13 ± 0.086	1.13 ± 0.14	1.14 ± 0.15	1.15 ± 0.15	1.11 ± 0.15
UniProt O43929 and related entries	1.07 ± 0.13	1.03 ± 0.12	0.989 ± 0.11	0.917 ± 0.1	0.961 ± 0.12	0.984 ± 0.082	0.994 ± 0.11	0.952 ± 0.12
B4GAT1 (UniProt O43505)	0.995 ± 0.089	0.953 ± 0.074	0.959 ± 0.07	0.917 ± 0.086	0.9 ± 0.056	0.921 ± 0.076	0.969 ± 0.1	0.89 ± 0.04
UniProt O14908 and related entries	1.01 ± 0.046	1.04 ± 0.052	0.944 ± 0.061	0.932 ± 0.063	0.889 ± 0.062	0.914 ± 0.054	0.903 ± 0.073	0.901 ± 0.076
IGF2BP3 (UniProt O00425)	0.95 ± 0.047	0.962 ± 0.062	0.926 ± 0.053	0.891 ± 0.077	0.865 ± 0.068	0.884 ± 0.074	0.878 ± 0.058	0.847 ± 0.07
EIF3F (UniProt O00303)	0.994 ± 0.048	0.992 ± 0.01	1.04 ± 0.045	1.06 ± 0.075	1.15 ± 0.12	1.23 ± 0.14	1.29 ± 0.12	1.44 ± 0.18
UniProt O15258 and related entries	0.957 ± 0.074	0.993 ± 0.041	0.895 ± 0.091	0.933 ± 0.038	0.925 ± 0.073	0.86 ± 0.067	0.862 ± 0.1	0.894 ± 0.03
LANCL1 (UniProt O43813)	1.03 ± 0.0069	1.03 ± 0.045	0.924 ± 0.03	0.954 ± 0.065	0.899 ± 0.054	0.907 ± 0.049	0.85 ± 0.04	0.863 ± 0.089
UniProt O00716 and related entries	1.02 ± 0.016	0.988 ± 0.021	1.01 ± 0.0076	1.04 ± 0.011	1.03 ± 0.039	1 ± 0.036	0.99 ± 0.034	1.04 ± 0.047
BACH1 (UniProt O14867)	1.03 ± 0.046	1.01 ± 0.031	0.981 ± 0.018	0.966 ± 0.025	0.98 ± 0.022	0.985 ± 0.037	0.997 ± 0.075	0.999 ± 0.065
ARID1A (UniProt O14497)	0.993 ± 0.031	1.06 ± 0.016	1.08 ± 0.055	1.08 ± 0.084	1.1 ± 0.1	1.12 ± 0.12	1.16 ± 0.17	1.13 ± 0.17
UniProt O14523 and related entries	0.963 ± 0.087	1.03 ± 0.081	1.02 ± 0.054	0.999 ± 0.051	1.07 ± 0.049	0.97 ± 0.047	1.03 ± 0.085	1.02 ± 0.053
UniProt O15226 and related entries	0.98 ± 0.03	0.975 ± 0.035	0.972 ± 0.032	1.01 ± 0.018	1.02 ± 0.059	1.07 ± 0.043	1.12 ± 0.078	1.14 ± 0.056
UniProt O60861 and related entries	1 ± 0.02	1.01 ± 0.071	1.01 ± 0.047	0.94 ± 0.063	0.935 ± 0.035	0.929 ± 0.04	0.978 ± 0.046	0.888 ± 0.06
RANBP6 (UniProt O60518)	1.02 ± 0.1	1.01 ± 0.055	0.973 ± 0.022	0.965 ± 0.029	1.05 ± 0.02	0.992 ± 0.078	0.9902 ± 0.0074	0.993 ± 0.045
DHX15 (UniProt O43143)	1.12 ± 0.089	1.23 ± 0.13	1.16 ± 0.092	1.2 ± 0.14	1.22 ± 0.12	1.23 ± 0.11	1.19 ± 0.071	1.17 ± 0.075
CLIC1 (UniProt O00299)	0.871 ± 0.12	0.885 ± 0.096	0.867 ± 0.12	0.846 ± 0.1	0.847 ± 0.12	0.82 ± 0.096	0.794 ± 0.12	0.832 ± 0.12
UniProt O60888 and related entries	0.888 ± 0.056	0.819 ± 0.043	0.949 ± 0.027	0.958 ± 0.079	0.945 ± 0.057	0.9 ± 0.031	0.855 ± 0.1	0.941 ± 0.029
BRD4 (UniProt O60885)	0.955 ± 0.075	0.972 ± 0.072	1.01 ± 0.093	0.962 ± 0.11	0.967 ± 0.093	0.98 ± 0.091	1.02 ± 0.061	1.02 ± 0.089

Given with bars between the fields: part of the list above.
Target | NP40-soluble protein abundance (concentration: 0.1mM) | NP40-soluble protein abundance (concentration: 0.5mM) | NP40-soluble protein abundance (concentration: 1mM) | NP40-soluble protein abundance (concentration: 2mM) | NP40-soluble protein abundance (concentration: 4mM) | NP40-soluble protein abundance (concentration: 6mM) | NP40-soluble protein abundance (concentration: 8mM) | NP40-soluble protein abundance (concentration: 10mM)
UniProt O60880 and related entries | 0.979 ± 0.065 | 0.949 ± 0.076 | 1.01 ± 0.1 | 0.939 ± 0.11 | 0.955 ± 0.14 | 0.945 ± 0.14 | 0.976 ± 0.1 | 0.927 ± 0.12
UniProt O60888 and related entries | 0.888 ± 0.056 | 0.819 ± 0.043 | 0.949 ± 0.027 | 0.958 ± 0.079 | 0.945 ± 0.057 | 0.9 ± 0.031 | 0.855 ± 0.1 | 0.941 ± 0.029
